Measured values reported in patent US20260078416A1, “ORTHOGONAL METABOLIC FRAMEWORK FOR ONE-CARBON UTILIZATION” (Mojia Biotech Pte. Ltd., priority 2021, published 2026).
Some entries share one result that the patent states for a list of compounds.

Tested on: lactate production from acetaldehyde and formate
Experiment: HACS screening with acetaldehyde and formate (lactate productivity)
Format: cell-based, E. coli
Details: 5 mM acetaldehyde and 20 mM formate, first round

Molecule	lactate productivity compared to other HACS variants
JGI15: HACS variant; GenBank HAK63664.1 (protein) MAKSEGKVNGATLMARALQQQGVQYMFGIVGFPVIPIAIAAQREGITYIGMRNEQSASYAAQAASYLTGRPQACLVVSGPGVVHALAGLANAQVNCWPMLLIGGASAIEQNGMGAFQEERQVLLASPLCKYAHQVERPERIPYYVEQAVRSALFGRPGAAYLDMPDDVILGEVEEAAVRPAATVGEPPRSLAPQENIEAALDALQSAKRPLVIVGKGMAWSRAENEVRQFIERTRLPFLATPMGKGVMPDDHPLSVGGARSHALQEADLVFLLGARFNWILHFGLPPRYSKDVRVIQLDLSAEEIGNNRQAEVALVGDGKAIVGQLNQALSSRQWFYPAETPWREAIAAKIAGNQAAVAPMIADNTSPMNYYRVYRDIAARLPRNAIIVGEGANTMDIGRTQMPNFEPRSRLDAGSYGTMGIGLGFAVAAAAVHPGRPVIAVQGDSAFGFSGMEFETAARYGMPIKVIILNNGGIGMGSPAPRDGQPGMPHALSHDARYERIAEAFGGAGFYVTDSAELGPALDAAMAFKGPAIVNIKIAATADRKPQQFNWHG	more than 2 fold
JGI20: HACS variant; GenBank PWB41796.1 (protein) MGQITGAQIVARALKQQGVEYMFGIVGIPVIPIAMFAQREGIKFYGFRNEQSASYAAAAVGYLTGRPGVCLGVSGPGMIHGVAGMANAWSNCWPMILIGGANDSYQNGQGAFQEAPQIEAARPFAKYCARPDSLARLPFYVEQAVRTSIYGRPGAVYLDLPGDIITGAMEEEDVHFPPRCPDAPRMMAPQESIDAAMAALKSAERPLVIVGKGAAYSRAENEVREFLETTQLPYLASPMGKGVMPDDHPLSIAPARSAALLGADVILLMGARLNWMMHFGHPPRFDPKVRVIQMDISAEEIGTNVPTEVALVGDAKAITTQLNASLKQQPWQYPSETTWWTGLRKKIDENGATVAEMMADESVPMSYYRVYREIRDLIPNDAIIQNEGASTMDIGRTLMPNFLPRHRLDAGSFGTMGVGLGQAIAAAAVHPDKHVFCIEGDSAFGFSGMEVETAARYGMKNITFIIINNNGIGGGPDTLDPTRVPPSAYTPNAHYEKMAEIYGGKGYFVTEPSQLRPALEEAIKADKPAIVNIMISATSQRKPQQFAWLTR	more than 2 fold
